# Assay results taken from patent US20230192896A1.
# Amino acid sequences for entries named in this document (tags omitted). A change or cut given only in a name is not applied to a line headed by its entry.
# UniProt P00742: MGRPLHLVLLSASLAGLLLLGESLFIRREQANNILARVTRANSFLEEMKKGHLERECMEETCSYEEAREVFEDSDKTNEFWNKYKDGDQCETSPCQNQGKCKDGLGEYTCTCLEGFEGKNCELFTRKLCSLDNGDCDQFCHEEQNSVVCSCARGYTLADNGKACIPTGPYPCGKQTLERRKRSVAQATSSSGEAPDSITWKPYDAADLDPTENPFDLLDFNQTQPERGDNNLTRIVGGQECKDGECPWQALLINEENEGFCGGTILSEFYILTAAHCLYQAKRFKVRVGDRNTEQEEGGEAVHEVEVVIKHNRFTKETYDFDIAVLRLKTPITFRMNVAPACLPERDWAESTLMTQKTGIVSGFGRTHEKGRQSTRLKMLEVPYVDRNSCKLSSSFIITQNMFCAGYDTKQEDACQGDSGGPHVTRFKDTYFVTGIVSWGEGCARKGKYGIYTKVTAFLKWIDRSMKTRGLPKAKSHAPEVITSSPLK
# These are yes or no findings as the source states them, for the method shown. Some entries that bind do so weakly or less than the wild type.
# B1: BIIB-12-917 (antibody, V domains shown)
# VH: EVQLVQSGAEVKKPGESLKISCKGSGYSFTTYWIGWVRQMPGKGLEWMGIIYPGDSDTRYSPSFQGQVTISADKSISTAYLQWSSLKASDTAMYYCARGRFRPRGRFDYWGQGTLVTVSS
# VL: EIVMTQSPATLSVSPGERATLSCRASQSVSSNLAWYQQKPGQAPRLLIYGASTRATGIPARFSGSGSGTEFTLTISSLQSEDFAVYYCQQLFNHPPTFGGGTKVEIK
# Target: FX zymogen (Homo sapiens (Human)) (UniProt P00742)
# Experiment: BLI, antibody on AHQ sensor, 250 nM FX variant
binder,measurement,value
B1,binding,binds
